{"source": "PubChem BioAssay AID1259308 (NCATS, 2017)", "assay": "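Genes whose loss raises luciferase production in HEK293 cells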 (primary screen)", "cells": "human HEK293 embryonic kidney cells stably expressing firefly luciferase (HEK-CMV-Luc2-Hygro)", "knock-down reagent": "single siRNA against human genes, 0.8 pmol siRNA per well", "time to read-out": "72 h", "measured": "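Luciferase light (ONE-Glo) measured on one replicate plate set and viability (CellTiter-Glo) on the other, scaled to a negative control siRNA, with robust z-scores and luciferase per cell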", "direction": "total luciferase, z-score and total luciferase, % of control: higher = more reporter protein produced", "call rule": "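Active when the median/MAD z-score for overall luciferase is greater than 3; a gene was taken forward for validation with new siRNAs if at least two of its three siRNAs passed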", "calls": "active = raised luciferase; inactive = no rise", "note": "The deposit covers about 59,000 reagents; shown is a random part of them. Over the whole deposit, about 1,510 (2.6%) are marked active. 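Calls use total luciferase alone and ignore viability, so some active siRNAs may act by altering cell number.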 A number with no mark means an inactive call. The numbers tell different reagents against one gene apart. Further read-outs or replicates are left out here. No sequences are given here."}
The first 4 entries, ahead of the listing:
{"Gene": "LMO4 (LIM domain only 4)", "reagent no.": 1, "total luciferase, z-score": -0.873, "total luciferase, % of control": 64.5}
{"Gene": "LMO4 (LIM domain only 4)", "reagent no.": 2, "total luciferase, z-score": "4.05 (active)", "total luciferase, % of control": 163}
{"Gene": "LMO4 (LIM domain only 4)", "reagent no.": 3, "total luciferase, z-score": -0.75, "total luciferase, % of control": 67}
{"Gene": "CDS2 (CDP-diacylglycerol synthase 2)", "reagent no.": 1, "total luciferase, z-score": 0.116, "total luciferase, % of control": 84.2}

The list itself, from the start:
{"Gene": "LMO4 (LIM domain only 4)", "reagent no.": 1, "total luciferase, z-score": -0.873, "total luciferase, % of control": 64.5}
{"Gene": "LMO4 (LIM domain only 4)", "reagent no.": 2, "total luciferase, z-score": "4.05 (active)", "total luciferase, % of control": 163}
{"Gene": "LMO4 (LIM domain only 4)", "reagent no.": 3, "total luciferase, z-score": -0.75, "total luciferase, % of control": 67}
{"Gene": "CDS2 (CDP-diacylglycerol synthase 2)", "reagent no.": 1, "total luciferase, z-score": 0.116, "total luciferase, % of control": 84.2}
{"Gene": "CDS2 (CDP-diacylglycerol synthase 2)", "reagent no.": 2, "total luciferase, z-score": 1.23, "total luciferase, % of control": 106}
{"Gene": "CDS2 (CDP-diacylglycerol synthase 2)", "reagent no.": 3, "total luciferase, z-score": -0.1, "total luciferase, % of control": 79.9}
{"Gene": "UTRN (utrophin)", "reagent no.": 1, "total luciferase, z-score": 1.15, "total luciferase, % of control": 105}
{"Gene": "UTRN (utrophin)", "reagent no.": 2, "total luciferase, z-score": 0.0536, "total luciferase, % of control": 83}
{"Gene": "UTRN (utrophin)", "reagent no.": 3, "total luciferase, z-score": 1.29, "total luciferase, % of control": 108}
{"Gene": "NFIC (nuclear factor I C)", "reagent no.": 1, "total luciferase, z-score": 3, "total luciferase, % of control": 141}
{"Gene": "NFIC (nuclear factor I C)", "reagent no.": 2, "total luciferase, z-score": 0.132, "total luciferase, % of control": 84.5}
{"Gene": "NFIC (nuclear factor I C)", "reagent no.": 3, "total luciferase, z-score": 0.489, "total luciferase, % of control": 91.6}
{"Gene": "CRHR1 (corticotropin releasing hormone receptor 1)", "reagent no.": 1, "total luciferase, z-score": -0.0464, "total luciferase, % of control": 81}
{"Gene": "CRHR1 (corticotropin releasing hormone receptor 1)", "reagent no.": 2, "total luciferase, z-score": -0.682, "total luciferase, % of control": 68.3}
{"Gene": "CRHR1 (corticotropin releasing hormone receptor 1)", "reagent no.": 3, "total luciferase, z-score": 2.08, "total luciferase, % of control": 123}
{"Gene": "CHTF18 (chromosome transmission fidelity factor 18)", "reagent no.": 1, "total luciferase, z-score": 0.531, "total luciferase, % of control": 92.5}
{"Gene": "CHTF18 (chromosome transmission fidelity factor 18)", "reagent no.": 2, "total luciferase, z-score": -0.472, "total luciferase, % of control": 72.5}
{"Gene": "CHTF18 (chromosome transmission fidelity factor 18)", "reagent no.": 3, "total luciferase, z-score": -1.32, "total luciferase, % of control": 55.6}
{"Gene": "RAP2A (RAP2A, member of RAS oncogene family)", "reagent no.": 1, "total luciferase, z-score": 1.02, "total luciferase, % of control": 102}
{"Gene": "RAP2A (RAP2A, member of RAS oncogene family)", "reagent no.": 2, "total luciferase, z-score": -1.44, "total luciferase, % of control": 53.2}
{"Gene": "RAP2A (RAP2A, member of RAS oncogene family)", "reagent no.": 3, "total luciferase, z-score": 0.261, "total luciferase, % of control": 87.1}
{"Gene": "SYCP1 (synaptonemal complex protein 1)", "reagent no.": 1, "total luciferase, z-score": -0.128, "total luciferase, % of control": 79.3}
{"Gene": "SYCP1 (synaptonemal complex protein 1)", "reagent no.": 2, "total luciferase, z-score": 0.241, "total luciferase, % of control": 86.7}
{"Gene": "SYCP1 (synaptonemal complex protein 1)", "reagent no.": 3, "total luciferase, z-score": -0.19, "total luciferase, % of control": 78.1}
{"Gene": "SLC24A3", "reagent no.": 1, "total luciferase, z-score": -0.222, "total luciferase, % of control": 77.5}
{"Gene": "SLC24A3", "reagent no.": 2, "total luciferase, z-score": 0.316, "total luciferase, % of control": 88.2}
{"Gene": "SLC24A3", "reagent no.": 3, "total luciferase, z-score": -0.502, "total luciferase, % of control": 71.9}
{"Gene": "HBEGF (heparin binding EGF like growth factor)", "reagent no.": 1, "total luciferase, z-score": -0.15, "total luciferase, % of control": 78.9}
{"Gene": "HBEGF (heparin binding EGF like growth factor)", "reagent no.": 2, "total luciferase, z-score": -0.29, "total luciferase, % of control": 76.1}
{"Gene": "HBEGF (heparin binding EGF like growth factor)", "reagent no.": 3, "total luciferase, z-score": -0.363, "total luciferase, % of control": 74.7}
{"Gene": "PDE7B-AS1 (PDE7B antisense RNA 1)", "reagent no.": 1, "total luciferase, z-score": 1.97, "total luciferase, % of control": 121}
{"Gene": "PDE7B-AS1 (PDE7B antisense RNA 1)", "reagent no.": 2, "total luciferase, z-score": 0.477, "total luciferase, % of control": 91.4}
{"Gene": "PDE7B-AS1 (PDE7B antisense RNA 1)", "reagent no.": 3, "total luciferase, z-score": -0.317, "total luciferase, % of control": 75.6}
